According to US20220313629A1, “TRANSIENT POTENTIAL MELASTATIN 8 (TRPM8) ANTAGONISTS AND RELATED METHODS” (MARSHALL UNIVERSITY RESEARCH CORPORATION, priority 2019, published 2022):
Some results were stated once for a whole list of compounds, not compound by compound.

By UniProt entry, the sequences of proteins in these tests, tags left out.
UniProt Q7Z2W7, whole entry: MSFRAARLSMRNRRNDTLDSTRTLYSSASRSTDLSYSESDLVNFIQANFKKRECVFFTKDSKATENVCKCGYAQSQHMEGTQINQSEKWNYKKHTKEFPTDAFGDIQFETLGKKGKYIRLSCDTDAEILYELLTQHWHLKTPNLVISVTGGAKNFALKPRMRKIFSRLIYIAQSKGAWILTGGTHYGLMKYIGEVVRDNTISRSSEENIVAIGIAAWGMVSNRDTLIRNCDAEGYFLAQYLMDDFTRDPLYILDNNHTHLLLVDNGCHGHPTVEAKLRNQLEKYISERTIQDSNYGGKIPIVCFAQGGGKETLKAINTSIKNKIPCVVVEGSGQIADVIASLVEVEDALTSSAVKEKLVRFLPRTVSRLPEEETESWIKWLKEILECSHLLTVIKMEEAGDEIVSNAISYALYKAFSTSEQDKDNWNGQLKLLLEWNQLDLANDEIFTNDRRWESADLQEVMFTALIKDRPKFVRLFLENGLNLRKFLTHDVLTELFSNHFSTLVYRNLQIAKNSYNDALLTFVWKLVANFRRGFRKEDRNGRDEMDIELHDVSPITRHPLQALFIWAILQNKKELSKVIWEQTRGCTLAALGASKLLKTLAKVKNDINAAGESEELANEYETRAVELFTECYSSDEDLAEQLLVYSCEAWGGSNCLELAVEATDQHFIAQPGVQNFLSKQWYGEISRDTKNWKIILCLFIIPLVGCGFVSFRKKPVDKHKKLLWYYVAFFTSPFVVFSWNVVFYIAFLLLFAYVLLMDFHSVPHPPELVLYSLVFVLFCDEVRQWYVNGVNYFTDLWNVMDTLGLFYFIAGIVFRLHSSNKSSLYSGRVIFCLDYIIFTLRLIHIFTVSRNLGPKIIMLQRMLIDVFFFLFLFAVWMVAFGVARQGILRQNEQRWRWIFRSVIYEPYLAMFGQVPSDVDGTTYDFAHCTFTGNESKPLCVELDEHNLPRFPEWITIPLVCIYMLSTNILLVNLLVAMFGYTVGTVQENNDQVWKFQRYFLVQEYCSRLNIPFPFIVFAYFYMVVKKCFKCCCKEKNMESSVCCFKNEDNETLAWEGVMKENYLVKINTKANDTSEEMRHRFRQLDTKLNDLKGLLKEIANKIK

Target: TRPM8 (Homo sapiens, UniProt Q7Z2W7)
Assay: TRPM8 antagonist activity by Fura-2 Ca2+ imaging in HEK-293 cells stably expressing human TRPM8
Type: cell-based
Conditions: icilin Ca2+ assay

Row | SMILES | improvement of hTRPM8 potency relative to Compound 2
1 | O=C(NC1CCCCCC1)c1ccc(-c2ccccc2)cc1 [Compound 5, N-cycloheptyl-[1,1′-biphenyl]-4-carboxamide] | 8-9 fold
2 | O=C(NC1CCCCCCC1)c1ccc(-c2ccccc2)cc1 [Compound 7, N-cyclooctyl-[1,1′-biphenyl]-4-carboxamide] | 8-9 fold
